{
  "source": "paper PMC5444711",
  "binders": {"B1": {"name": "spindle assembly checkpoint protein MAD1 (protein, UniProt Q9Y6D9 1-718)", "chain": "MEDLGENTMVLSTLRSLNNFISQRVEGGSGLDISTSAPGSLQMQYQQSMQLEERAEQIRSKSHLIQVEREKMQMELSHKRARVELERAASTSARNYEREVDRNQELLTRIRQLQEREAGAEEKMQEQLERNRQCQQNLDAASKRLREKEDSLAQAGETINALKGRISELQWSVMDQEMRVKRLESEKQELQEQLDLQHKKCQEANQKIQELQASQEARADHEQQIKDLEQKLSLQEQDAAIVKNMKSELVRLPRLERELKQLREESAHLREMRETNGLLQEELEGLQRKLGRQEKMQETLVGLELENERLLAKLQSWERLDQTMGLSIRTPEDLSRFVVELQQRELALKDKNSAVTSSARGLEKARQQLQEELRQVSGQLLEERKKRETHEALARRLQKRVLLLTKERDGMRAILGSYDSELTPAEYSPQLTRRMREAEDMVQKVHSHSAEMEAQLSQALEELGGQKQRADMLEMELKMLKSQSSSAEQSFLFSREEADTLRLKVEELEGERSRLEEEKRMLEAQLERRALQGDYDQSRTKVLHMSLNPTSVARQRLREDHSQLQAECERLRGLLRAMERGGTVPADLEAAAASLPSSKEVAELKKQVESAELKNQRLKEVFQTKIQEFRKACYTLTGYQIDITTENQYRLTSLYAEHPGDCLIFKATSPSGSKMQLLETEFSHTVGELIEVHLRRQDSIPAFLSSLTLELFSRQTVA"}},
  "target": "T1, HA-tagged PIGN (Phosphatidylinositol Glycan Anchor Biosynthesis, Class N) (human) (UniProt O95427)",
  "T1 sequence": "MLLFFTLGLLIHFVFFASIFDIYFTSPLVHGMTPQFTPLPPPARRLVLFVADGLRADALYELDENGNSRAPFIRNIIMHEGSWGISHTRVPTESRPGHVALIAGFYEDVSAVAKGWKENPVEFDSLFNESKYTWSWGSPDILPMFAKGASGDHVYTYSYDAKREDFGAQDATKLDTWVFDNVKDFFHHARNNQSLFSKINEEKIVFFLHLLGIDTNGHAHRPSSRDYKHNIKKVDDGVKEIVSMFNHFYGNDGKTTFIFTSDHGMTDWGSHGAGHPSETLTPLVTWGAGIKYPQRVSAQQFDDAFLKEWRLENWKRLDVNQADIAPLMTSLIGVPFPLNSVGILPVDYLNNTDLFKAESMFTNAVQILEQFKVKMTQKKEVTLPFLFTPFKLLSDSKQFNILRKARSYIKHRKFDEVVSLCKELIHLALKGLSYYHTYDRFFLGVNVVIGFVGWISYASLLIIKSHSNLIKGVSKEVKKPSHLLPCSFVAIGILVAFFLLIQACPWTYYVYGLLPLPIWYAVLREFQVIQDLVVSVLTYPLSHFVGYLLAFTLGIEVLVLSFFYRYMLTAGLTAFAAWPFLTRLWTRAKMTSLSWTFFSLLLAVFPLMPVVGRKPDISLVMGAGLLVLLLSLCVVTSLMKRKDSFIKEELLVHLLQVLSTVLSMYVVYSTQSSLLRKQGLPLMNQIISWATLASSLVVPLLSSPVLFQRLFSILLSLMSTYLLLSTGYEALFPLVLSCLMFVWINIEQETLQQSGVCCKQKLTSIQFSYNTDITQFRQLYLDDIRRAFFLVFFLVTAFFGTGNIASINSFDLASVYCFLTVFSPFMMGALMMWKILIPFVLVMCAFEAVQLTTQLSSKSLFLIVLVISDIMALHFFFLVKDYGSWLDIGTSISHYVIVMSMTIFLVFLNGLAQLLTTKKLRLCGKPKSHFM",
  "test": "pull-down; HA-tag pulldown assay from lysate of CRISPR/Cas9 PIGN KO HEK293 cells transfected with HA-tagged PIGN; several times post-transfection (highest at 48 hours); MAD1 detected by blot; input 10% of total protein lysate",
  "note": "These are yes or no findings as the source states them, for the method shown. Binding seen in cells or lysates may run through a third protein. Some entries that bind do so weakly or less than the wild type. Sequences can lack the tags named with a protein.",
  "data": [
    {"binder": "B1", "values": [
      {"measurement": "binding", "result": "binds"}
    ]}
  ]
}
